This is an account of results in publication PMC8885668.

The chains behind the UniProt entries cited, without tags or fusion partners. Residues count along the entry.
UniProt P07288, 25-261: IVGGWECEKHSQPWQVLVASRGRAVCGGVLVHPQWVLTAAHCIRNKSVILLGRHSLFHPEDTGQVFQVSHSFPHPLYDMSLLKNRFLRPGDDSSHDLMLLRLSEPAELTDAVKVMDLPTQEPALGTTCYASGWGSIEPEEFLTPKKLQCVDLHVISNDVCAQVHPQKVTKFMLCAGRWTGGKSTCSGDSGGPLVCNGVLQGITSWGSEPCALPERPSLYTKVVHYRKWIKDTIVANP

For at least one entry, the source does not settle the construct or the ends of the probe. The comparison behind a weaker result is the experiment's own reference, which may not be listed here. For some assays here: Where a protein sequence is shown, tags need not be part of it.

Data set [1] concerns the target prostate-specific antigen (PSA) (UniProt P07288). Briefly: electrochemical aptasensor (DPV). Conditions: 100 ng/mL, slight change in current density; 5' NH2-(CH2)6, amide-coupled to MPA on electrode; DPV in 0.1 M PBS pH 7.4, 5.0 mM K4[Fe(CN)6]/K3[Fe(CN)6] (1:1), 0.1 M KCl; 50 nM aptamer immobilized; 40 min protein incubation; BSA-blocked; single-stranded ….
The target of data set [2] is T1, carcinoembryonic antigen (CEA) (UniProt P06731).
T1 sequence (looked up, limits assumed): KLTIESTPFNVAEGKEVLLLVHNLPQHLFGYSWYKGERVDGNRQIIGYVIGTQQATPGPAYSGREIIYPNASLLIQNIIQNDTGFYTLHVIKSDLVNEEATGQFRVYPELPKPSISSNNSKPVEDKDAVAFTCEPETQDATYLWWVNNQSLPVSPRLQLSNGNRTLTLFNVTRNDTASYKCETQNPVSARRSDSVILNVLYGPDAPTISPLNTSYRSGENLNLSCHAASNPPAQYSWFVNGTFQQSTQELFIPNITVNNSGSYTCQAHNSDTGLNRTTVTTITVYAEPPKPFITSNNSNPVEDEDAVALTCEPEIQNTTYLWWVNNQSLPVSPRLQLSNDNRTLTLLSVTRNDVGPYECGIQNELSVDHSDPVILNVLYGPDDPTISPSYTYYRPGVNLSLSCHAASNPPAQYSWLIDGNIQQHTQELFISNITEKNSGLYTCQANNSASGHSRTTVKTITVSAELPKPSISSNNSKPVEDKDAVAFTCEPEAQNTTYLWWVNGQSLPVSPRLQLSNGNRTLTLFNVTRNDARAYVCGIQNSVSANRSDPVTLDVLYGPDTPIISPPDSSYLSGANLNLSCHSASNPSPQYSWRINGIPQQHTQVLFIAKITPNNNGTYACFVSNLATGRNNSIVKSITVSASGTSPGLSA
Briefly: electrochemical aptasensor (DPV). The note with it: 100 ng/mL, slight change in current density; 5' NH2-(CH2)6, amide-coupled to MPA on electrode; DPV in 0.1 M PBS pH 7.4, 5.0 mM K4[Fe(CN)6]/K3[Fe(CN)6] (1:1), 0.1 M KCl; 50 nM aptamer immobilized; 40 min protein incubation; BSA-blocked; single-stranded ….

“GGGCCGTCGAACACGAGCATGGTGCGTGGACCTAGGATGACCTGAGTACTGTCC [anti-HER2 aptamer]”: the binding result in data set [1] and in data set [2] was “binds more weakly” in each case.
